Patent US20170298096A1 (CANIMGUIDE THERAPEUTICS, published 2017)
Results are given in words; binding and its absence hold for the method and conditions named. Some results given as binding are weak or reduced against the parent protein; the word gives no strength. For part of these data: Sequences can lack the tags named with a protein. Each block holds one binder with its values, some of them ahead of it. No end group written: not given here.

By UniProt entry, the sequences of proteins in these tests, tags left out. Where a name states a change or a piece, a line headed by the entry shows the natural chain unless it says otherwise.
UniProt P20701: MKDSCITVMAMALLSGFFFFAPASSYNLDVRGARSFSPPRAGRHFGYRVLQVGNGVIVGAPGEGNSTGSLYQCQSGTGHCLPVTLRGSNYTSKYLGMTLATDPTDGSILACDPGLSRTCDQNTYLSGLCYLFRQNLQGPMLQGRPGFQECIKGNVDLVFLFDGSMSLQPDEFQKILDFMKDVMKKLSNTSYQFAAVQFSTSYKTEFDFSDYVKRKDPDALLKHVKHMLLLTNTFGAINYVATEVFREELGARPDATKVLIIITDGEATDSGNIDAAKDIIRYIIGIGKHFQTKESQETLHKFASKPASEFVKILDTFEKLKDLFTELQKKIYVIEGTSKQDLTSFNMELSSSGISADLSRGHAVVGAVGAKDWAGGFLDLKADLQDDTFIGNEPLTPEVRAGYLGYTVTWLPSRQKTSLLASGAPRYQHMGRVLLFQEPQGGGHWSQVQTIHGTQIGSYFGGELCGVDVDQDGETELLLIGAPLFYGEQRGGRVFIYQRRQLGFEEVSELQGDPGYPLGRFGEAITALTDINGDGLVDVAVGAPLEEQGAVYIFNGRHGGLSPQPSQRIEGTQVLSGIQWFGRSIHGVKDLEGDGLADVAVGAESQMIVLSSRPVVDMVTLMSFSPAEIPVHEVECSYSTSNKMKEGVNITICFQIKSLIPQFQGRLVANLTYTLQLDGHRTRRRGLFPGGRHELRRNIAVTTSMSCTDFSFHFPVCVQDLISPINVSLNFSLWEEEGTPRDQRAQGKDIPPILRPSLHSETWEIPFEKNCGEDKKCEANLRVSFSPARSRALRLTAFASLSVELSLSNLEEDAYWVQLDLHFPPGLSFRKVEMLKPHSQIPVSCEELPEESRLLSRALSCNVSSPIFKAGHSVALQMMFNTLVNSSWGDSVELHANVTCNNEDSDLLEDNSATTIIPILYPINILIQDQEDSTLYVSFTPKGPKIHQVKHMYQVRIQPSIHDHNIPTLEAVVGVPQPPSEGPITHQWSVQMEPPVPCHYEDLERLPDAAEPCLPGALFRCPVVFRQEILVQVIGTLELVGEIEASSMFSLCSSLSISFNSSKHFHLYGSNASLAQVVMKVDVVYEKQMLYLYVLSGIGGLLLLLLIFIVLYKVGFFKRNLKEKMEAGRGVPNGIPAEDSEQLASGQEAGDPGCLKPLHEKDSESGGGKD

Columns and labels:
LFA-1 (human) = LFA-1 (human) (UniProt P20701); experiment: immunocytochemical staining of LFA-1 on PBMCs
His-tagged P3028 (human) [1] = molecular target: T1, His-tagged P3028 (human); experiment: PEPSCAN ELISA, peptide 0.5 mg/mL in solution as competitor
T1 sequence (peptide): VFDEFKPLVEEPQNLIK

His-tagged P3028 (human) [2] = molecular target: T1, His-tagged P3028 (human); experiment: PEPSCAN ELISA (rampo)

binding (LFA-1 (human)): binds
Binder: VFDEFKPLVEEPQNLIK [P3028]

binding (His-tagged P3028 (human) [1]): binds
Binder: KKLDTFFKKLSLFTE [SCF28]

binding (His-tagged P3028 (human) [2]): binds
Binder: KKLDTFFVKLGLFTER [SEQ ID NO 99]
